# Reference: the supplement of paper PMC12067093, “Discovery and optimisation of a covalent ligand for TRIM25 and its application to targeted protein ubiquitination” (Chemical Science, 2025)
# Chains of the proteins cited; added tags and fusions are not shown. Lines headed by an entry give the natural chain unless they say otherwise; changes in a name come on top.
# UniProt Q08J23, whole entry, looked up: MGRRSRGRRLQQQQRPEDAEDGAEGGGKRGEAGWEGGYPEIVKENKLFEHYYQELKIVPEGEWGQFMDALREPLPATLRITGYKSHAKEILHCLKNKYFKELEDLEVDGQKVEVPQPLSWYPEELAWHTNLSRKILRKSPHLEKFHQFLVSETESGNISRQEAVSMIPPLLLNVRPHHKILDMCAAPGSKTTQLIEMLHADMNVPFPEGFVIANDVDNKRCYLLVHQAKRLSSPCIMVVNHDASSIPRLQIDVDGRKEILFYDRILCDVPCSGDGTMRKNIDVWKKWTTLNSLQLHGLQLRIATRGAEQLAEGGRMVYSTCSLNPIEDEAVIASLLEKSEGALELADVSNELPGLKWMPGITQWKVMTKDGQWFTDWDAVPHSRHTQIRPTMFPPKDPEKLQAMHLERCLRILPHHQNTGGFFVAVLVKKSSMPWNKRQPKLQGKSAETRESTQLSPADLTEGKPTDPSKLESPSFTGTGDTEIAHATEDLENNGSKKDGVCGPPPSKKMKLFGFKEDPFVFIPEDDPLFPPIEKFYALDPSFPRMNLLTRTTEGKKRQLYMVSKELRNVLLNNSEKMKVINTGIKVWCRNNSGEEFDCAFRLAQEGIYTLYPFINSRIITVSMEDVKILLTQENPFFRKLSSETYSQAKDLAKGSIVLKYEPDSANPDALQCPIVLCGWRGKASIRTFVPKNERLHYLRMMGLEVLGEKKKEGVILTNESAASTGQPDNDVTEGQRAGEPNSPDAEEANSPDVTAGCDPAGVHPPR
# UniProt Q5SY16: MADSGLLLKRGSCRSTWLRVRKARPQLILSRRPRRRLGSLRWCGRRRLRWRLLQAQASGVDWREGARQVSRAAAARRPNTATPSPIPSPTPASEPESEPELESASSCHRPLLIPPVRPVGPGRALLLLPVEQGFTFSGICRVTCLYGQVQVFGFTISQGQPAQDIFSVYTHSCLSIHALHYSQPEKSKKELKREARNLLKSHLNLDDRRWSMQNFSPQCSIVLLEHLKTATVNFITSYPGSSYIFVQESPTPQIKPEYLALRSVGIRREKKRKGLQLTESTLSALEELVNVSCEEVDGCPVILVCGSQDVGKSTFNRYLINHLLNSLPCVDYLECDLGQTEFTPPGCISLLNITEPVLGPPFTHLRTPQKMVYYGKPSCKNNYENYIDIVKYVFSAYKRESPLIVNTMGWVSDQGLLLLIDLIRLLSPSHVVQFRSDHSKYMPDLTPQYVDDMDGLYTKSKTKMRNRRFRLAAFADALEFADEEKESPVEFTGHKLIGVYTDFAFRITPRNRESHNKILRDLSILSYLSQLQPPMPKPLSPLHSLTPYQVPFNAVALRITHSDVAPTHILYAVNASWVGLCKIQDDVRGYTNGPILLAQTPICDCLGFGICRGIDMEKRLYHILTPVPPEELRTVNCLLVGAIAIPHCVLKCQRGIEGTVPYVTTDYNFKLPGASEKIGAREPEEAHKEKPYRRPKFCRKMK
# UniProt O43847: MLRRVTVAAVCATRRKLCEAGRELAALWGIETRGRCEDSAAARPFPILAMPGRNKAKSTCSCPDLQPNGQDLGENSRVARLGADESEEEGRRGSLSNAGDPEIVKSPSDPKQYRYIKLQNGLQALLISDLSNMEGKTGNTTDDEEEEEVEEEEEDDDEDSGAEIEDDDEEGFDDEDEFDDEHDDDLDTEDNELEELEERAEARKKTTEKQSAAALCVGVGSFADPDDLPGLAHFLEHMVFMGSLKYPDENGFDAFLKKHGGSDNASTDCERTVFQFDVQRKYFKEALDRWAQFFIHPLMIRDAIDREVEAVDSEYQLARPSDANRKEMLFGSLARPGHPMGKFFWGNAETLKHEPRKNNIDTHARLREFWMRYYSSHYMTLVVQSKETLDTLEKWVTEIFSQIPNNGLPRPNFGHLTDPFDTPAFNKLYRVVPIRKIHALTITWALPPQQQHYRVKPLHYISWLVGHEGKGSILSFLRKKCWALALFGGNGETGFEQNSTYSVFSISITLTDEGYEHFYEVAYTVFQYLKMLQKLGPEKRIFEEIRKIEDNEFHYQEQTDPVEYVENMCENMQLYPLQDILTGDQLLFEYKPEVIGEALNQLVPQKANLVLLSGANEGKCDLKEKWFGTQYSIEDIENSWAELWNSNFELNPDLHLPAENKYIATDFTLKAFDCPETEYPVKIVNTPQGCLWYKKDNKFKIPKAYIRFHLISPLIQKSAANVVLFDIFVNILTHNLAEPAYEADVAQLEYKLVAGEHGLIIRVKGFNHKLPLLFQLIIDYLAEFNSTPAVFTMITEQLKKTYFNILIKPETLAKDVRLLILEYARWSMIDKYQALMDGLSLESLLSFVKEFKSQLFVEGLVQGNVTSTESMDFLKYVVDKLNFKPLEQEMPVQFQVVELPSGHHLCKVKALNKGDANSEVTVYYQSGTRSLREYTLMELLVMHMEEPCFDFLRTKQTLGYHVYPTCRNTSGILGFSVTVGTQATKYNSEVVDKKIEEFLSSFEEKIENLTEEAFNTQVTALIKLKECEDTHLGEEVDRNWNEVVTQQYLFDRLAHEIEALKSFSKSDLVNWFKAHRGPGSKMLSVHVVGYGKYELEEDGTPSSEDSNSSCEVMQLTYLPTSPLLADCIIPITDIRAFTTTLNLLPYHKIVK
# UniProt O75607: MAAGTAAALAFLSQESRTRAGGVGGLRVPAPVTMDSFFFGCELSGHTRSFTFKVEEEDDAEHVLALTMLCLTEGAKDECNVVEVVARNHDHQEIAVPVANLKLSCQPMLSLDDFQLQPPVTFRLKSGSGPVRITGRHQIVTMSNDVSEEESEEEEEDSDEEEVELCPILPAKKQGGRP
# UniProt Q9BZ95: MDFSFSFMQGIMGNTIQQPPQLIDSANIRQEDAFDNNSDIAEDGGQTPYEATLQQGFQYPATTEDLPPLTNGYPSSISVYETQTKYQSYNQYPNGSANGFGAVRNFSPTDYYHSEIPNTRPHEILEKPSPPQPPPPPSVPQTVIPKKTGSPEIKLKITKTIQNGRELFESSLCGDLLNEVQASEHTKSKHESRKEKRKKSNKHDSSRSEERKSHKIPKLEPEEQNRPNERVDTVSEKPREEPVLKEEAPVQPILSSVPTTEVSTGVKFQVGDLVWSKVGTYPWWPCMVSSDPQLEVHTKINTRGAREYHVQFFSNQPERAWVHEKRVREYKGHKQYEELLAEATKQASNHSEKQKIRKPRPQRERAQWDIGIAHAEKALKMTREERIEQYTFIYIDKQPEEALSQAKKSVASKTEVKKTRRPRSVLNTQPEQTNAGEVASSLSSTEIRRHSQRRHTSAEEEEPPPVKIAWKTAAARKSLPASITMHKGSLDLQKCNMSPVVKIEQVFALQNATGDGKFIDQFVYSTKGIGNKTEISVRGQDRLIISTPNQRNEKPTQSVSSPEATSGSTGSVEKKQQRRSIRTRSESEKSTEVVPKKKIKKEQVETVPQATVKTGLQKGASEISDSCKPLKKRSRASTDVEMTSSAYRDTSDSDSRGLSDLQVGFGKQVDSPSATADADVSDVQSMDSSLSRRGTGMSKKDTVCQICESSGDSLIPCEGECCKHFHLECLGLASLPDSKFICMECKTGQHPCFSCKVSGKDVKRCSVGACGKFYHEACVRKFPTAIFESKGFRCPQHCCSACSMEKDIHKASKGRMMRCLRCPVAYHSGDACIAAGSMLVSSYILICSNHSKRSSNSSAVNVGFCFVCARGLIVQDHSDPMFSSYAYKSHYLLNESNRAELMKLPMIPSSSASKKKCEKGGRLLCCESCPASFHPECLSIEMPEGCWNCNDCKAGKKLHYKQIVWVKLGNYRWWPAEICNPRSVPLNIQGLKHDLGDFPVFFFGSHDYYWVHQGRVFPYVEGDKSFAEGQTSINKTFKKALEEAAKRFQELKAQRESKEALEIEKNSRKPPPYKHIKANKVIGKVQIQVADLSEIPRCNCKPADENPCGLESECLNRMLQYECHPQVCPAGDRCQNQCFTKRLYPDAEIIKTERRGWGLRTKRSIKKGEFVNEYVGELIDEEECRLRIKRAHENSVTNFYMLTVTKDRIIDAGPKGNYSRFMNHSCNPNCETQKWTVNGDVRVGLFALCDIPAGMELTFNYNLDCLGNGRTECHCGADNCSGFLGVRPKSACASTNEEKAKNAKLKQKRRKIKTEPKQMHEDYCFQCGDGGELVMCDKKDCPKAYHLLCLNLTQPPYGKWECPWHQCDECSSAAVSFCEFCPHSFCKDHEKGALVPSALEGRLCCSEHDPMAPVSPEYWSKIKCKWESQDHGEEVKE
# UniProt P46459: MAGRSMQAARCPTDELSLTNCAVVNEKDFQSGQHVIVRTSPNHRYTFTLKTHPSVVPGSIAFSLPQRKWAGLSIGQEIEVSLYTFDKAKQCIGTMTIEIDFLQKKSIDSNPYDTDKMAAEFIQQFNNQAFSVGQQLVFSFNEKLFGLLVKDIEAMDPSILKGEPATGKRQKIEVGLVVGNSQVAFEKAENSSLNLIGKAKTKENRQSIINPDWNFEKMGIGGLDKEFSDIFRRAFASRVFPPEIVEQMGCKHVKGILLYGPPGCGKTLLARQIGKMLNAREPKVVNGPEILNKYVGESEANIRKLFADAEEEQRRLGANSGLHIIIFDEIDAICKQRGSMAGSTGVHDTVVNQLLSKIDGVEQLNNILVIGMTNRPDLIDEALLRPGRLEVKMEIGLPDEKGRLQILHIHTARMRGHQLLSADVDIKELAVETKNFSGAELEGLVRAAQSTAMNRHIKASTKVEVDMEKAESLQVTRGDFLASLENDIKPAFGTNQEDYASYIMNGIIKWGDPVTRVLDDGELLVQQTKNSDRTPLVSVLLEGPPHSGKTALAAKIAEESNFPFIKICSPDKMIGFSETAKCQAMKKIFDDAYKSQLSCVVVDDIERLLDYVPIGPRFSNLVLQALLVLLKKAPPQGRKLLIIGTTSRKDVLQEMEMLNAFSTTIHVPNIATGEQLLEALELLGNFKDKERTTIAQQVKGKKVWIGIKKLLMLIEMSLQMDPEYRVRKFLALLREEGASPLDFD
# UniProt Q8TAT6: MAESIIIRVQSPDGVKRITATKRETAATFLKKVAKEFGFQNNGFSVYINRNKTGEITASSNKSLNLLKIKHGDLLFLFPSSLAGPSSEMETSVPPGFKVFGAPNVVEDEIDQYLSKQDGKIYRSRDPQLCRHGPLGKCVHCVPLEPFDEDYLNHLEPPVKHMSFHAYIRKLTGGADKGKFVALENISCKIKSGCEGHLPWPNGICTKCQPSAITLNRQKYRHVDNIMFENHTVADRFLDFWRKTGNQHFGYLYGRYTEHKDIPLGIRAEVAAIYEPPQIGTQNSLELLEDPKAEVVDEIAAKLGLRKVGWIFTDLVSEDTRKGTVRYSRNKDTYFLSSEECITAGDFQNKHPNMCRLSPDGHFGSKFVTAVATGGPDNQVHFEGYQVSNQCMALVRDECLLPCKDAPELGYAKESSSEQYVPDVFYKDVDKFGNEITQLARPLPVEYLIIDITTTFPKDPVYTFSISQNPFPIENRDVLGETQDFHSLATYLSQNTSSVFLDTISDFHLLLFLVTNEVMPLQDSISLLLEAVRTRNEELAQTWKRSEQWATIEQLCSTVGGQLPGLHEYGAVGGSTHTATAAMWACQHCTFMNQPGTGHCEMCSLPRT
# UniProt Q9UK39: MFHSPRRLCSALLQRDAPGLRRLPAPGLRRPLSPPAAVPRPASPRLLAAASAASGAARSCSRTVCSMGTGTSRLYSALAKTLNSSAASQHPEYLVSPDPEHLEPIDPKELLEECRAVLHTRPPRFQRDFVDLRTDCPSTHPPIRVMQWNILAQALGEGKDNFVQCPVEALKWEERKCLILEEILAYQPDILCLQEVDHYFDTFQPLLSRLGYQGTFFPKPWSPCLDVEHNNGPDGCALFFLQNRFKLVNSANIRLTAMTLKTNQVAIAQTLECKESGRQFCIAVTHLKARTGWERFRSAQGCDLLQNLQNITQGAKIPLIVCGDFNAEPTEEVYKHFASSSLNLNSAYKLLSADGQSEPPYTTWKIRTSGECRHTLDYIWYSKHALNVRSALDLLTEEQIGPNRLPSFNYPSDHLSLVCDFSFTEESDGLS
# UniProt P06748, whole entry: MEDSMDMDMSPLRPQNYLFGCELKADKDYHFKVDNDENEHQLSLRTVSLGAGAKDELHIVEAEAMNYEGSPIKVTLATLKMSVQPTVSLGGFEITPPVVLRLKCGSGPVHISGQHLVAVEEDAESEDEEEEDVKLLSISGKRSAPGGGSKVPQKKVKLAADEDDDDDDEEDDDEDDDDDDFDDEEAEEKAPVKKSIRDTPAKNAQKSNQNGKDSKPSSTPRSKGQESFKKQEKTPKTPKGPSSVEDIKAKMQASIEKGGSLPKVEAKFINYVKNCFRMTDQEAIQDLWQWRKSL
# UniProt Q96IY1: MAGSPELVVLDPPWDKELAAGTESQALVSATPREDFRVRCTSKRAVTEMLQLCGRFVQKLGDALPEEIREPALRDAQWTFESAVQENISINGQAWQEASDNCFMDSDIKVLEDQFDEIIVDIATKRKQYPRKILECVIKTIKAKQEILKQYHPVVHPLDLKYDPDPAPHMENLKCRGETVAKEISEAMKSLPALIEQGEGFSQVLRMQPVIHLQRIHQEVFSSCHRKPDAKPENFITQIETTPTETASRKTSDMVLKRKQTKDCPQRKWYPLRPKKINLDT
# This is one part of the list.
# Compound: Cc1cc(ccc1-c1ccccc1)C(=O)N1CCCN(CC1)C(=O)CCl [compound 10]
# Test: probe-labelled cysteine peptide fold change vs DMSO (competition) (log2 fold change); higher = less target engagement (more negative = stronger competition)
# Conditions: THP-1, incubation time: 4 h
# 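Further: competitive profiling in live THP-1 cells: cysteine peptides tagged with an iodoacetamide desthiobiotin (IA-DTB) probe, intensity after compound treatment relative to DMSO-treated cells.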
Target,probe-labelled cysteine peptide fold change (10 µM),probe-labelled cysteine peptide fold change (50 µM)
NSUN2_Q08J23_502_KDGVCGPPPSKK (UniProt Q08J23),-0.297,-0.6
NOL9_Q5SY16_219_WSMQNFSPQCSIVLLEHLK (UniProt Q5SY16),0.108,0.0193
NRDC_O43847_1027_ECEDTHLGEEVDR (UniProt O43847),0.000607,0.373
NLRC5_Q86WI3_917_KLDLSNNGLSVAGVHCVLR (UniProt Q86WI3),-0.142,-0.426
NPM3_O75607_41_VPAPVTMDSFFFGCELSGHTR (UniProt O75607),-0.0603,0.0957
NSUN2_Q08J23_221_RCYLLVHQAK (UniProt Q08J23),0.193,0.286
NRBF2_Q96F24_155_SEPAEPCIGSK (UniProt Q96F24),-0.296,-0.527
NOL9_Q5SY16_379_MVYYGKPSCK (UniProt Q5SY16),-0.00774,-0.487
NPHP4_O75161_56_QGVLEVLSEVECHLR (UniProt O75161),0.0297,0.245
NSD3_Q9BZ95_173_ELFESSLCGDLLNEVQASEHTK (UniProt Q9BZ95),-0.166,0.093
NMD3_Q96D46_321_QLEEFIVMECSIVQDIKR (UniProt Q96D46),0.131,-0.0466
NSD2_O96028_1102_KGEFVNEYVGELIDEEECMAR (UniProt O96028),-0.0789,-0.308
NOL9_Q5SY16_140_ALLLLPVEQGFTFSGICR (UniProt Q5SY16),-0.0051,-0.0416
NOL8_Q76FK4_517_SDGPETTTQCK (UniProt Q76FK4),0.046,-0.194
NSUN2_Q08J23_235_LSSPCIMVVNHDASSIPR (UniProt Q08J23),0.0902,0.111
NOB1_Q9ULX3_288_VFCSHCGNK (UniProt Q9ULX3),0.179,0.00394
NOL9_Q5SY16_605_GYTNGPILLAQTPICDCLGFGICR (UniProt Q5SY16),0.429,0.345
NSUN2_Q08J23_271_ILCDVPCSGDGTMR (UniProt Q08J23),-0.105,-0.277
NOM1_Q5C9Z4_696_EIIHVLMDCCLQEK (UniProt Q5C9Z4),0.202,-0.00117

Target,probe-labelled cysteine peptide fold change (10 µM),probe-labelled cysteine peptide fold change (50 µM)
NLRX1_Q86UT6_779_DLLLHDQCQITTLR (UniProt Q86UT6),0.142,0.152
NSF_P46459_91_QCIGTMTIEIDFLQK (UniProt P46459),0.0665,0.455
NOL6_Q9H6R4_633_LIPHQVVTHLLALHADIPETCVHYVGGPLDALIQGLK (UniProt Q9H6R4),0.227,0.299
NPAT_Q14207_50_EYAEHCTDEGFIPACLLSLFGK (UniProt Q14207),0.0411,-0.264
NOP2_P46087_463_VLLDAPCSGTGVISK (UniProt P46087),-0.0187,0.0458
NPLOC4_Q8TAT6_188_FVALENISCK (UniProt Q8TAT6),-0.0636,-0.121
NT5C3A_Q9H0P0_73_IKNPTRVEEIICGLIK (UniProt Q9H0P0),0.0602,-0.646
NOCT_Q9UK39_281_QFCIAVTHLK (UniProt Q9UK39),0.0137,-0.0921
NPM1_P06748_21_MEDSMDMDMSPLRPQNYLFGCELK (UniProt P06748),-0.208,-0.505
NSL1_Q96IY1_136_ILECVIK (UniProt Q96IY1),0.0491,0.126
NLN_Q9BYT8_451_YNHAACFGLQPGCLLPDGSR (UniProt Q9BYT8),0.12,0.0146
NT5C_Q8TCD5_166_GQEETPSWEHILFTCCHNR (UniProt Q8TCD5),-0.137,-0.119
NSUN2_Q08J23_235_RLSSPCIMVVNHDASSIPR (UniProt Q08J23),0.0279,-0.196
NRDC_O43847_620_ANLVLLSGANEGKCDLK (UniProt O43847),-0.248,-0.574
NOTCH1_P46531_1218_GTQGVHCEINVDDCNPPVDPVSR (UniProt P46531),0.00206,0.173
NPLOC4_Q8TAT6_138_CVHCVPLEPFDEDYLNHLEPPVK (UniProt Q8TAT6),0.114,0.178
NSF_P46459_264_GILLYGPPGCGK (UniProt P46459),-0.0833,-0.0265
NT5C3B_Q969T7_56_CPSSYNILDNSK (UniProt Q969T7),-0.0586,-0.351
NLE1_Q9NVX2_216_WITGLSWEPLHANPECR (UniProt Q9NVX2),0.0851,0.2

# A different layout for part of the listing above.
Target	probe-labelled cysteine peptide fold change (10 µM)	probe-labelled cysteine peptide fold change (50 µM)
NOL6_Q9H6R4_633_LIPHQVVTHLLALHADIPETCVHYVGGPLDALIQGLK (UniProt Q9H6R4)	0.227	0.299
NSUN2_Q08J23_235_RLSSPCIMVVNHDASSIPR (UniProt Q08J23)	0.0279	-0.196
